According to patent US20070032460A1, “Use of voacamine and related compounds in the treatment of malaria” (priority 2005, published 2007):
At least one structure is not confirmed: it was looked up by name or label, or the drawing left a doubt.

Test system: calcium channel
Experiment: Screen for calcium channel blocker activity

SMILES: CC=C1CN(C)C2Cc3c([nH]c4ccccc34)C(c3cc4[nH]c5c(c4cc3OC)CCN3CC4CC(CC)C3C5(C(=O)OC)C4)CC1C2C(=O)OC (stereo not shown) [VOA, Voacamine]
- calcium channel blocker activity: minimal
